± gives the standard deviation of the averaged measurements. Most entries show no effect beyond the scatter of the controls.
How the values were obtained:
Assay in all cases: level (log10 ratio to DMSO vehicle control); higher = higher biomarker level / cell amount than vehicle control
[1] = compound: C=C(C)C(=O)OCCC(F)(F)C(F)(F)C(F)(F)C(F)(F)C(F)(C(F)(F)F)C(F)(F)F [(Perfluoro-5-methylhexyl)ethyl 2-methylprop-2-enoate]; details: in DMSO
Procedure: (§1)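 BioMAP Diversity Plus panel of 12 human primary cell co-culture systems (3C, 4H, LPS, SAg, BT, BF4T, BE3C, CASM3C, HDF3CGF, KF3CT, MyoF, Mphg). Compounds were added 1 h before stimulation and left for 24 h (MyoF 48 h; BT 72 h for soluble read-outs or 6 d for IgG). Biomarkers were read by ELISA, cytotoxicity by SRB, PBMC viability and proliferation by Alamar Blue. Each well value was divided by the mean of 8 DMSO control wells on the same plate and log10 transformed; duplicate blinded samples were tested at 4 concentrations.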

[2] = compound: O=C(O)CCC(F)(F)C(F)(F)C(F)(F)C(F)(F)C(F)(F)F [2H,2H,3H,3H-Perfluorooctanoic acid]; details: 2200 nM; in DMSO
Procedure: as §1

[3] = compound: COC(=O)CCC(F)(F)C(F)(F)C(F)(F)C(F)(F)F [Methyl 2H,2H,3H,3H-perfluoroheptanoate]; details: 2200 nM; in DMSO
Procedure: as §1

[4] = compound: O=S(=O)(O)C(F)(F)C(F)(F)OC(F)(F)C(F)(F)F [Perfluoro(2-ethoxyethane)sulfonic acid]; details: 2200 nM; in DMSO
Procedure: as §1

[5] = compound: O=S(=O)(O)CCC(F)(F)C(F)(F)C(F)(F)C(F)(F)C(F)(F)C(F)(F)F [6:2 Fluorotelomer sulfonic acid]; details: in DMSO
Procedure: as §1

[6] = compound: FC(F)(F)C(F)(F)C(F)(F)C(F)(F)C(F)(F)CCI [1-Iodo-1H,1H,2H,2H-perfluoroheptane]; details: 2200 nM; in DMSO
Procedure: as §1

Tetrafluorosuccinic acid = compound: O=C(O)C(F)(F)C(F)(F)C(=O)O [Tetrafluorosuccinic acid]; details: 2200 nM; in DMSO
Procedure: as §1

[7] = compound: C=C(C)C(=O)OCCC(F)(F)C(F)(F)C(F)(F)C(F)(F)C(F)(F)C(F)(F)C(F)(F)C(F)(F)F [8:2 Fluorotelomer methacrylate]; details: in DMSO
Procedure: as §1

Octafluoroadipamide = compound: NC(=O)C(F)(F)C(F)(F)C(F)(F)C(F)(F)C(N)=O [Octafluoroadipamide]; details: 2200 nM; in DMSO
Procedure: as §1

[8] = compound: NS(=O)(=O)C(F)(F)C(F)(F)C(F)(F)C(F)(F)C(F)(F)C(F)(F)F [Perfluorohexanesulfonamide]; details: 2200 nM; in DMSO
Procedure: as §1

[9] = compound: O=C(O)C(F)(F)C(F)(F)C(F)(F)C(F)(F)C(F)(F)C(F)(F)C(F)(F)C(F)(F)Cl [9-Chloro-perfluorononanoic acid]; details: in DMSO
Procedure: as §1

[10] = compound: OCCC(F)(F)C(F)(F)C(F)(F)C(F)(F)F [4:2 Fluorotelomer alcohol]; details: 2200 nM; in DMSO
Procedure: as §1

Nonafluoropentanamide = compound: NC(=O)C(F)(F)C(F)(F)C(F)(F)C(F)(F)F [Nonafluoropentanamide]; details: 2200 nM; in DMSO
Procedure: as §1

Perfluoropinacol = compound: OC(C(F)(F)F)(C(F)(F)F)C(O)(C(F)(F)F)C(F)(F)F [Perfluoropinacol]; details: in DMSO
Procedure: as §1

Test System | level (log10) ([1]; 740 nM) | level (log10) ([1]; 2200 nM) | level (log10) ([1]; 6700 nM) | level (log10) ([1]; 20000 nM) | level (log10) [2] | level (log10) [3] | level (log10) [4] | level (log10) ([5]; 2200 nM) | level (log10) ([5]; 6700 nM) | level (log10) ([5]; 20000 nM) | level (log10) ([5]; 60000 nM) | level (log10) [6] | level (log10) (Tetrafluorosuccinic acid) | level (log10) ([7]; 740 nM) | level (log10) ([7]; 2200 nM) | level (log10) (Octafluoroadipamide) | level (log10) [8] | level (log10) ([9]; 2200 nM) | level (log10) ([9]; 6700 nM) | level (log10) ([9]; 20000 nM) | level (log10) [10] | level (log10) (Nonafluoropentanamide) | level (log10) (Perfluoropinacol; 2200 nM) | level (log10) (Perfluoropinacol; 6700 nM) | level (log10) (Perfluoropinacol; 20000 nM)
BF4T:MMP-3 | -0.093 | -0.046 ± 0.0085 | -0.0975 ± 0.022 | -0.057 ± 0.041 | 0.024 ± 0.0071 | -0.0115 ± 0.042 | 0.0235 ± 0.029 | 0.035 ± 0.085 | -0.0095 ± 0.074 | -0.0015 ± 0.0035 | 0.0515 ± 0.025 | -0.017 ± 0.02 | 0.0195 ± 0.03 | 0.0185 ± 0.019 | 0.014 ± 0.011 | -0.007 ± 0.024 | -0.014 ± 0.035 | 0.0075 ± 0.049 | 0.0535 ± 0.023 | 0.118 ± 0.035 | 0.0185 ± 0.036 | -0.028 ± 0.0099 | -0.008 ± 0.051 | -0.013 ± 0.04 | -0.008 ± 0.0057
KF3CT:MMP-9 | -0.072 ± 0.047 | -0.04 ± 0.033 | -0.0045 ± 0.037 | -0.027 ± 0.041 | -0.0165 ± 0.005 | -0.021 ± 0.04 | -0.0015 ± 0.00071 | -0.0175 ± 0.021 | -0.0285 ± 0.019 | 0.0085 ± 0.018 | 0.026 ± 0.0028 | -0.0175 ± 0.03 | -0.0085 ± 0.03 | 0.005 ± 0.0071 | -0.0175 ± 0.0021 | -0.006 ± 0.0099 | -0.0285 ± 0.026 | -0.014 ± 0.014 | -0.0345 ± 0.0021 | -0.106 ± 0.0071 | -0.0645 ± 0.033 | -0.022 ± 0.0014 | 0.011 ± 0.031 | 0.01 ± 0.018 | -0.0245 ± 0.029
SAg:CD62E/E-Selectin | -0.0525 ± 0.073 | -0.008 ± 0.044 | 0.0215 ± 0.011 | 0.007 ± 0.014 | 0.014 ± 0.018 | -0.0095 ± 0.0064 | -0.001 ± 0.033 | -0.0015 ± 0.023 | -0.008 ± 0.0057 | -0.007 ± 0.013 | 0.038 ± 0.013 | 0.0285 ± 0.012 | -0.018 ± 0.013 | 0.0055 ± 0.025 | -0.012 ± 0.016 | 0.0125 ± 0.049 | 0.017 ± 0.061 | -0.007 ± 0.011 | -0.017 ± 0.0042 | 0.017 ± 0.014 | 0.0035 ± 0.005 | 0.0165 ± 0.016 | 0.0145 ± 0.018 | 0.008 ± 0.0071 | -0.15 ± 0.0021
LPS:M-CSF | 0.0385 ± 0.035 | 0.018 ± 0.02 | 0.022 ± 0.02 | 0.006 ± 0.0042 | 0.0215 ± 0.0092 | 0.0355 ± 0.019 | 0.0415 ± 0.005 | 0.0025 ± 0.026 | -0.0045 ± 0.015 | 0.004 ± 0.03 | 0.0485 ± 0.039 | -0.0095 ± 0.0078 | -0.0015 ± 0.039 | -0.0085 ± 0.037 | -0.0185 ± 0.011 | -0.032 ± 0.15 | -0.016 ± 0.0014 | 0.0165 ± 0.011 | -0.0125 ± 0.0078 | 0.0485 ± 0.047 | 0.008 ± 0.054 | -0.016 ± 0.052 | 0.002 ± 0.0085 | 0.0135 ± 0.015 | -0.1085 ± 0.00071
MyoF:Collagen IV | 0.0035 ± 0.0021 | 0.015 ± 0.048 | 0.025 ± 0.02 | 0.058 ± 0.1 | -0.026 ± 0.018 | -0.005 ± 0.047 | 0.01 ± 0.0099 | -0.023 ± 0.031 | -0.0185 ± 0.033 | -0.006 ± 0.023 | -0.002 ± 0.014 | 0.043 ± 0.02 | 0.011 ± 0.016 | 0 ± 0.0042 | -0.001 ± 0.014 | 0.0035 ± 0.033 | -0.014 ± 0.0014 | 0.0095 ± 0.012 | 0.024 ± 0.0071 | 0.264 ± 0.031 | 0.0065 ± 0.03 | -0.023 ± 0.064 | 0.0295 ± 0.0092 | 0.0385 ± 0.005 | 0.165 ± 0.0028
